Source: US20150216970A1 (Genentech, published 2015)
Results are given in words; binding and its absence hold for the method and conditions named. In cells and extracts the contact can be indirect. Some binding calls cover weakened binding; strength is not graded here.

Protein sequences, listed by entry. Tags and fused reporters are not part of them. Residues count along the entry.
UniProt P86176, residues 29-249: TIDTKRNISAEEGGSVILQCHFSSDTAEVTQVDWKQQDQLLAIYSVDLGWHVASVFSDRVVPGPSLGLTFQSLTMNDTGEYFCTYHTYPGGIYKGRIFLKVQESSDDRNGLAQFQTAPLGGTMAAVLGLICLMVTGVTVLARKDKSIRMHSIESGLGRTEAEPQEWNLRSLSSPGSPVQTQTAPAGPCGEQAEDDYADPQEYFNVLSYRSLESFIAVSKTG

Target: T1, CD226, endogenous, on primary C57BL6/J mouse CD8+ T cells (mouse) (UniProt Q8K4F0)
T1 sequence (looked up): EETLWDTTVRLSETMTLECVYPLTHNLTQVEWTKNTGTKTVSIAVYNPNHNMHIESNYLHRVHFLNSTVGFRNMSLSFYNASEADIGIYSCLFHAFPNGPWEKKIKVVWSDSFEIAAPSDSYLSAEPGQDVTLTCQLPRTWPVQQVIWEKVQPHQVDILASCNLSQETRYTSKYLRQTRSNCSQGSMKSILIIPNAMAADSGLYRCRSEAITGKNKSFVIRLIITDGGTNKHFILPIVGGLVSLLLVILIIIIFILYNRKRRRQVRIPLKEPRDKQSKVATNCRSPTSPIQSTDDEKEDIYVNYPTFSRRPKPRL
Test: co-immunoprecipitation from lysates of stimulated C57BL6/J CD8+ T cells (IP anti-TIGIT, probe anti-CD226)

binding: binds
Substance: TIGIT, endogenous, on primary C57BL6/J mouse CD8+ T cells (from UniProt P86176 29-249) (receptor)
